In the experiment the test system is P388 leukemia ip, CD2F1 mice, survival T/C. In words: NCI In Vivo Anticancer Drug Screen. Data for tumor model P388 Leukemia (intraperitoneal) in CD2F1 (CDF1) mice. Particulars: T/C endpoint: median survival time, higher T/C = longer survival.
Setting [1] is: dose: 120.0 mg/kg/injection, schedule: Q01DX005 (ip), vehicle: saline with Tween-80.
The mark [2] stands for this setting: dose: 240.0 mg/kg/injection, schedule: Q01DX005 (ip), vehicle: saline with Tween-80.
[3] abbreviates: dose: 100.0 mg/kg/injection, schedule: Q01DX009 (ip), vehicle: saline.
Where [4] appears, read: dose: 200.0 mg/kg/injection, schedule: Q01DX009 (ip), vehicle: saline.
Where [5] appears, read: dose: 50.0 mg/kg/injection, schedule: Q01DX005 (ip), vehicle: saline with Tween-80.
[6] abbreviates: dose: 100.0 mg/kg/injection, schedule: Q01DX005 (ip), vehicle: saline with Tween-80.
Setting [7] is: dose: 12.5 mg/kg/injection, schedule: Q01DX005 (ip), vehicle: saline.
Where [8] appears, read: dose: 60.0 mg/kg/injection, schedule: Q01DX005 (ip), vehicle: Klucel (hydroxypropylcellulose) (HPC).
[9] abbreviates: dose: 240.0 mg/kg/injection, schedule: Q01DX005 (ip), vehicle: Klucel (hydroxypropylcellulose) (HPC).
Where [10] appears, read: dose: 100.0 mg/kg/injection, schedule: Q01DX005 (ip), vehicle: distilled water + Tween-80.
The mark [11] stands for this setting: dose: 200.0 mg/kg/injection, schedule: Q01DX005 (ip), vehicle: saline with Tween-80.

The list is a part of this screen's results and no random one: it is rich in T/C values a quarter to a half above the control, in often repeated tests (any T/C) and in doses without a T/C. Further doses and runs are listed elsewhere. T/C is the treated group as % of the vehicle group. Some doses have a count of surviving animals in place of a T/C: the source files T/C as zero there, which appears to mark a toxic dose or a test without result, not a measured value. Some doses without a T/C left all or most animals alive at the check, yet need not have been tolerated: survival well below the control is almost never listed, so the zero probably covers shortened survival too. Survivors were counted at the toxicity check, usually on the fifth day, unless a day is given; later deaths do not show. Schedules are NCI's codes, taken here to give the interval after Q, in days (D) or hours (H), and the number of doses after X. Some entries hold several experiments; the values are given in rising order. For survival time, this PubChem deposit counts one and a half times the control or more as active, and values a quarter to a half above the control carry no call in these data; other NCI protocols may use other cut-offs. Some T/C values are followed by the survivors on the day toxicity was checked, most often the fifth; where none is given, no animal had died by that day. Additions like (4×) give the number of equal values in this list.

In the case of `CN1C(=O)c2c(ccc3c2OCO3)[C@@]2(C)C(=O)Cc3cc4c(cc3[C@H]12)OCO4`, the survivor count (dose: 25.0 mg/kg/injection, schedule: Q01DX005 (ip), vehicle: Klucel (hydroxypropylcellulose) (HPC)) was 6 of 6.

As for `CC1=NN(c2ccccc2)C(=O)/C1=C(\[O-])c1ccccc1.CC1=NN(c2ccccc2)C(=O)/C1=C(\[O-])c1ccccc1.[Co+2]`, the survivor count runs as follows: under setting [1], 3 of 6; under setting [2], 0 of 6.

Regarding `COC(=O)CCCCCCCCCCN(CCCl)CCCl`, the T/C reads like this: (dose: 1.56 mg/kg/injection, schedule: Q01DX009 (ip), vehicle: saline) 130 % of control; (dose: 3.12 mg/kg/injection, schedule: Q01DX009 (ip), vehicle: saline) 147 % of control. Also, the survivor count was 5 of 6 (dose: 25.0 mg/kg/injection, schedule: Q01DX009 (ip), vehicle: saline); 0 of 6 (dose: 50.0 mg/kg/injection, schedule: Q01DX009 (ip), vehicle: saline); 0 of 6 under setting [3]; 0 of 6 under setting [4].

With `COc1cccc2c1C(=O)c1c(O)c3c(c(O)c1C2=O)[C@@H](N=[N+]=[N-])[C@@](O)(C(C)=O)C[C@@H]3OC1CC(N)C(O)C(C)O1` (some centres not stated), the T/C (dose: 25.0 mg/kg/injection, schedule: Q04DX003 (ip), vehicle: water) was 136 % of control [5 of 6 alive on day 9].

As to `CCOC(=O)N1CCN(CCCCCOc2ccc(CC(C)(C)C)cc2Cl)CC1`, the survivor count (dose: 400.0 mg/kg/injection, schedule: Q01DX009 (ip), vehicle: saline with Tween-80) is 2 of 6.

Turning to `O=C1CCNC(=O)N1OS(=O)(=O)c1ccccc1`, the survivor count runs as follows: (dose: 100.0 mg/kg/injection, schedule: Q01DX009 (ip), vehicle: Klucel (hydroxypropylcellulose) (HPC)) 5 of 6; (dose: 200.0 mg/kg/injection, schedule: Q01DX009 (ip), vehicle: Klucel (hydroxypropylcellulose) (HPC)) 4 of 6.

In the case of `C1CCC(N2CCOCC2)CC1`, the survivor count is reported as 0 of 6 under setting [3] and 0 of 6 under setting [4].

Take `CSC(=S)n1nc(C)c(N=Nc2cc(Cl)ccc2Cl)c1C`: the survivor count was 6 of 6 under setting [5] and 6 of 6 under setting [6].

As to `CCCCCCCCCCCCCCCC(=O)Nc1ccn(C2OC(CO)C(O)C2O)c(=O)n1` (configuration not stated), the survivor count reads like this: (dose: 50.0 mg/kg/injection, schedule: Q01DX009 (ip), vehicle: suspension in saline) 5 of 6 and 6 of 6; (dose: 100.0 mg/kg/injection, schedule: Q01DX009 (ip), vehicle: suspension in saline) 6 of 6; (dose: 200.0 mg/kg/injection, schedule: Q01DX009 (ip), vehicle: suspension in saline) 2 of 6; (dose: 400.0 mg/kg/injection, schedule: Q01DX009 (ip), vehicle: suspension in saline) 4 of 6.

Consider `CCCCCCCCCCCCCCCC(=O)NC(CCCCN)C(=O)NC(CCCCN)C(=O)OCC` (configuration not stated), for which the survivor count was 2 of 6 and 3 of 6 (dose: 50.0 mg/kg/injection, schedule: Q01DX009 (ip), vehicle: saline with Tween-80); 0 of 6 (dose: 100.0 mg/kg/injection, schedule: Q01DX009 (ip), vehicle: saline with Tween-80); 0 of 6 (dose: 200.0 mg/kg/injection, schedule: Q01DX009 (ip), vehicle: saline with Tween-80).

Turning to `C[CH2][Sn]1([CH2]C)[O]S(=O)(=O)[O]1`, the T/C was 125 % of control [5 of 6 alive] (dose: 3.12 mg/kg/injection, schedule: Q01DX005 (ip), vehicle: saline, evaluated on day 20); 129 % of control (dose: 3.12 mg/kg/injection, schedule: Q01DX005 (ip), vehicle: saline, evaluated on day 30); 128 % of control (dose: 6.25 mg/kg/injection, schedule: Q01DX005 (ip), vehicle: saline, evaluated on day 20); 130 % of control (dose: 6.25 mg/kg/injection, schedule: Q01DX005 (ip), vehicle: saline, evaluated on day 30); 132 % of control under setting [7]. Besides, the survivor count under setting [7] is 4 of 6; the survivor count (dose: 50.0 mg/kg/injection, schedule: Q01DX005 (ip), vehicle: saline) is 0 of 6; the survivor count (dose: 100.0 mg/kg/injection, schedule: Q01DX005 (ip), vehicle: saline) is 0 of 6; the survivor count (dose: 200.0 mg/kg/injection, schedule: Q01DX005 (ip), vehicle: saline) is 0 of 6.

On to `CC1=NNB(O)c2c1sc(Br)c2Br`, for which the survivor count (dose: 400.0 mg/kg/injection, schedule: Q01DX001 (ip), vehicle: saline with Tween-80) is on record as 3 of 6.

For `CC1CP(c2ccccc2)(c2ccccc2)(c2ccccc2)OC1(C(=O)c1ccccc1)c1ccccc1` (configuration not stated), under “dose: 12.5 mg/kg/injection, schedule: Q01DX009 (ip), vehicle: saline with Tween-80”, the survivor count is listed as 4 of 6.

As to `CCC(C)/C(=C\C#N)NCCCN/C(=C/C#N)C(C)CC` (configuration not stated), the survivor count was 6 of 6 (dose: 30.0 mg/kg/injection, schedule: Q01DX005 (ip), vehicle: Klucel + Tween-80); 6 of 6 under setting [8]; 6 of 6 under setting [9].

Take `COc1ccc(S(=O)(=O)N/N=C/C(=O)O)cc1`: the T/C is, setting by setting: (dose: 12.5 mg/kg/injection, schedule: Q01DX005 (ip), vehicle: distilled water + Tween-80) 127, 130, 135 % of control; (dose: 12.5 mg/kg/injection, schedule: Q01DX009 (ip), vehicle: other) 128 and 141 % of control; (dose: 25.0 mg/kg/injection, schedule: Q01DX005 (ip), vehicle: distilled water + Tween-80) 130, 133, 135 % of control; (dose: 25.0 mg/kg/injection, schedule: Q01DX005 (ip), vehicle: saline with Tween-80) 128, 135, 137 (2×), 144 % of control; (dose: 25.0 mg/kg/injection, schedule: Q01DX009 (ip), vehicle: other) 149 % of control; (dose: 50.0 mg/kg/injection, schedule: Q01DX005 (ip), vehicle: distilled water + Tween-80) 144 and 147 % of control. Further, the T/C by setting is: under setting [5], 141, 142, 144, 147, 165 % of control; under setting [10], 144 % of control; under setting [6], 163, 171, 175, 188 % of control [5 of 6 alive] (2×); under setting [11], 157, 182, 185 [5 of 6 alive], 198 % of control. Moreover, the survivor count by setting is: under setting [10], 3 of 5; (dose: 100.0 mg/kg/injection, schedule: Q01DX009 (ip), vehicle: other) 5 of 6 and 6 of 6; (dose: 200.0 mg/kg/injection, schedule: Q01DX005 (ip), vehicle: distilled water + Tween-80) 0 of 5, 2 of 6, 2 of 5; under setting [11], 5 of 6 and 6 of 6; (dose: 200.0 mg/kg/injection, schedule: Q01DX009 (ip), vehicle: other) 2 of 6; (dose: 400.0 mg/kg/injection, schedule: Q01DX005 (ip), vehicle: saline with Tween-80) 1 of 6. Besides, the survivor count (dose: 400.0 mg/kg/injection, schedule: Q01DX009 (ip), vehicle: other) is on record as 0 of 6.

Regarding `COc1cc(C2N=C(N)N=C(N)N2c2ccc(S(N)(=O)=O)cc2)cc(OC)c1OC` (configuration not stated), under setting [9], the survivor count is reported as 0 of 6.

As for `Oc1c(Br)cc(Br)cc1/C=N/NC(=S)NC12CC3CC(CC(C3)C1)C2`, the survivor count (dose: 15.0 mg/kg/injection, schedule: Q01DX005 (ip), vehicle: Klucel (hydroxypropylcellulose) (HPC)) is recorded as 6 of 6; the survivor count (dose: 30.0 mg/kg/injection, schedule: Q01DX005 (ip), vehicle: Klucel (hydroxypropylcellulose) (HPC)) is recorded as 6 of 6; the survivor count under setting [8] was 6 of 6.

Regarding `CC(C)(C)[OH+][O-].[O-]c1ccc(Cl)cc1C=Nc1ccc(Cl)cc1[O-].[O]=[V]`, the survivor count was 0 of 6 under setting [1] and 0 of 6 under setting [2].

With `O=C1OCCc2c1[nH]c1ccccc21`, the survivor count (dose: 400.0 mg/kg/injection, schedule: Q04DX002 (ip), vehicle: saline with Tween-80) is reported as 0 of 6.

Source of the values: PubChem BioAssay AID330 (DTP/NCI, 2004).
